Results: article PMC9063202 (2022)

The chains behind the UniProt entries cited, without tags or fusion partners. Where a name states a change or a piece, a line headed by the entry shows the natural chain unless it says otherwise.
UniProt Q8NAU1: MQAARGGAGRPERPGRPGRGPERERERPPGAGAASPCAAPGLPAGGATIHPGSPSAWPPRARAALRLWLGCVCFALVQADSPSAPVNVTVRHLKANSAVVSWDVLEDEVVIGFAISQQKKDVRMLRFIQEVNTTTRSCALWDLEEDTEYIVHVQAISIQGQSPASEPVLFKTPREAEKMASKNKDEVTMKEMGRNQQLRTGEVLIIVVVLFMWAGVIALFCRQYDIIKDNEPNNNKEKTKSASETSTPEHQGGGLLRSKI

Biological target: IRISIN protein (human recombinant IRISIN) (human) (UniProt Q8NAU1)
Experiment: affinity purification with mass spectrometry; IRISIN IP with lysates of rosiglitazone- and IRISIN-treated MSCs; SDS-PAGE, silver staining, LC-MS/MS; TRPC3 confirmed by western blot; only the target purified

binding: binds
B1: TRPC3, endogenous in adipose-derived mesenchymal stem cells (protein, UniProt Q13507 1-921)
chain: MSTKVRKCKEQARVTFPAPEEEEDEGEDEGAEPQRRRRGWRGVNGGLEPRSAPSQREPHGYCPPPFSHGPDLSMEGSPSLRRMTVMREKGRRQAVRGPAFMFNDRGTSLTAEEERFLDAAEYGNIPVVRKMLEESKTLNVNCVDYMGQNALQLAVGNEHLEVTELLLKKENLARIGDALLLAISKGYVRIVEAILNHPGFAASKRLTLSPCEQELQDDDFYAYDEDGTRFSPDITPIILAAHCQKYEVVHMLLMKGARIERPHDYFCKCGDCMEKQRHDSFSHSRSRINAYKGLASPAYLSLSSEDPVLTALELSNELAKLANIEKEFKNDYRKLSMQCKDFVVGVLDLCRDSEEVEAILNGDLESAEPLEVHRHKASLSRVKLAIKYEVKKFVAHPNCQQQLLTIWYENLSGLREQTIAIKCLVVLVVALGLPFLAIGYWIAPCSRLGKILRSPFMKFVAHAASFIIFLGLLVFNASDRFEGITTLPNITVTDYPKQIFRVKTTQFTWTEMLIMVWVLGMMWSECKELWLEGPREYILQLWNVLDFGMLSIFIAAFTARFLAFLQATKAQQYVDSYVQESDLSEVTLPPEIQYFTYARDKWLPSDPQIISEGLYAIAVVLSFSRIAYILPANESFGPLQISLGRTVKDIFKFMVLFIMVFFAFMIGMFILYSYYLGAKVNAAFTTVEESFKTLFWSIFGLSEVTSVVLKYDHKFIENIGYVLYGIYNVTMVVVLLNMLIAMINSSYQEIEDDSDVEWKFARSKLWLSYFDDGKTLPPPFSLVPSPKSFVYFIMRIVNFPKCRRRRLQKDIEMGMGNSKSRLNLFTQSNSRVFESHSFNSILNQPTRYQQIMKRLIKRYVLKAQVDKENDEVNEGELKEIKQDISSLRYELLEDKSQATEELAILIHKLSEKLNPSMLRCE

These are yes or no findings as the source states them, for the method shown. Binding seen in cells or lysates may run through a third protein. These calls come from enrichment with a bait or labelling near it, and not all partners need be listed.
